Results deposited as PubChem BioAssay AID652272 (Drosophila RNAi Screening Center, 2013).
Purpose: 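Genome-wide knock-down search for components of Hedgehog signalling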 (primary screen). Cells: Drosophila clone 8 (Cl8) cells. Reagent: long dsRNA against Drosophila genes. Measured: 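Plate reader light from a firefly reporter under a ptc promoter fragment that responds to Hedgehog, with Renilla light as transfection reference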. Scale: firefly Hh reporter signal: higher = more ptc reporter light; Renilla reference signal: higher = more Renilla control light. Active means: 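Hit when the z-score averaged over two replicates is under -2 or over +3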. Calls: active = hit: reporter lowered or raised; inactive = not a hit.
The screen tested about 21,000 reagents; shown is a random part of those that have a named target and a result. Of all reagents, 503 (2.4%) were called active. 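Raw plate light values, not normalised; calls rest on replicate z-scores that were not deposited; hits include reporter decreases as well as increases.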 A number with no mark means an inactive call. A plus sign joins genes that one reagent is predicted to hit. The record does not give: the amount of reagent, the time to read-out.

| gene | dsRNA | firefly Hh reporter signal, replicate 1 | firefly Hh reporter signal, replicate 2 | firefly Hh reporter signal, replicate 3 | Renilla reference signal, replicate 1 | Renilla reference signal, replicate 2 |
| --- | --- | --- | --- | --- | --- | --- |
| CG33998 | DRSC05747 | 1.32e5 | 1.81e5 | – | 3525 | 7485 |
| Art1 (Arginine methyltransferase 1) | DRSC16063 | 81691 | 84384 | – | 3210 | 2883 |
| Ctps (CTP synthase) | DRSC09342 | 3.49e5 | – | – | 7898 | – |
| Ctps (CTP synthase) | DRSC10728 | 79040 | 44998 | – | 2976 | 1792 |
| Ctps (CTP synthase) | DRSC10729 | 84135 | – | – | 4147 | 2400 |
| CG10384 | DRSC03933 | 1.15e5 | 3.38e5 | – | 3168 | 15509 |
| CG10384 | DRSC04067 | 63210 | 45702 | – | 876 | 4486 |
| Sprn (Spermitin) | DRSC10132 | 51493 | 39393 | 42871 | 4200 | 3136 |
| mEFTu1 (mitochondrial translation elongation factor Tu 1) | DRSC06959 | 1.60e5 | 98888 | – | 6074 | 4021 |
| CG15643 | DRSC19679 | 51942 | 2.00e5 | – | 1235 | 8176 |
| CG10232 | DRSC14218 | 3.83e5 | 96581 | – | 19760 | 2921 |
| LRR (Leucine-rich repeat) | DRSC06444 | 84633 | 46714 | – | 1906 | 3024 |
| brun (brunelleschi) | DRSC02706 | 1.02e5 | 46356 | – | 3465 | 1136 |
| Dll (Distal-less) | DRSC04610 | 1.02e5 | 43816 | – | 2161 | 3655 |
| PH4alphaNE2 (prolyl-4-hydroxylase-alpha NE2) | DRSC16544 | 58729 | 89168 | – | 2080 | 2273 |
| CG42780 | DRSC17514 | 3.49e5 | 1.45e5 | – | 20237 | 3085 |
| Lgr3 (Leucine-rich repeat-containing G protein-coupled receptor 3) | DRSC15704 | 4.70e5 | 1.23e5 | – | 24188 | 3557 |
| Lgr3 (Leucine-rich repeat-containing G protein-coupled receptor 3) | DRSC15706 | 4.27e5 | 89189 | – | 21284 | 2413 |
| CG13293 | DRSC09967 | 47141 | 38588 | – | 4456 | 3005 |
| CycB3 (Cyclin B3) | DRSC16618 | 5.07e5 | 1.04e5 | – | 26243 | 3195 |
| CG3631 | DRSC15503 | 1.59e5 | 1.59e5 | – | 3195 | 6032 |
| CG14377 | DRSC14837 | 1.17e5 | 1.02e5 | – | 4032 | 3108 |
| Cap-G (Chromosome associated protein G) | DRSC06652 | 1.33e5 | 73200 | – | 3306 | 5274 |
| Cap-G (Chromosome associated protein G) | DRSC06653 | 77188 | 46747 | – | 2088 | 3693 |
| Sox15 (Sox box protein 15) | DRSC07555 | 96258 | 23781 | – | 2770 | 1499 |
| CG30496 | DRSC06805 | 1.20e5 | 1.06e5 | – | 5325 | 4193 |
| CG3609 | DRSC00620 | 86157 | 88842 | – | 2064 | 2224 |
| Isha (Insulator su(Hw) mRNA adaptor) | DRSC04456 | 75171 | 47568 | – | 2876 | 2277 |
| CG33937 (retired record) | DRSC15148 | 1.24e5 | 1.21e5 | – | 3993 | 3165 |

Copied from the list.
Under “Renilla reference signal, replicate 1”, CG30496 [DRSC06805] reads 5325
Under “Renilla reference signal, replicate 2”, Art1 (Arginine methyltransferase 1) [DRSC16063] is entered as 2883
Result for brun (brunelleschi) [DRSC02706] under “Renilla reference signal, replicate 2”: 1136
For “firefly Hh reporter signal, replicate 2”, mEFTu1 (mitochondrial translation elongation factor Tu 1) [DRSC06959] has 98888
CycB3 (Cyclin B3) [DRSC16618], firefly Hh reporter signal, replicate 1 → 5.07e5
Under “firefly Hh reporter signal, replicate 1”, Isha (Insulator su(Hw) mRNA adaptor) [DRSC04456] is entered as 75171

Continued:
| gene | dsRNA | firefly Hh reporter signal, replicate 1 | firefly Hh reporter signal, replicate 2 | firefly Hh reporter signal, replicate 3 | Renilla reference signal, replicate 1 | Renilla reference signal, replicate 2 |
| --- | --- | --- | --- | --- | --- | --- |
| Rpt6 (Regulatory particle triple-A ATPase 6) | DRSC20571 | 68264 (active) | 84508 | – | 2246 | 3069 |
| CG42822 | DRSC13232 | 47032 | 2.97e5 | – | 10260 | 6571 |
| CG12182 | DRSC08142 | 80560 | 77002 | – | 2969 | 2496 |
| CG10307 | DRSC04057 | 79721 | 53456 | – | 3010 | 2194 |
| SNF4Agamma (SNF4/AMP-activated protein kinase gamma subunit) | DRSC13461 | 2395 | 2.29e5 | – | 507 | 5432 |
| SNF4Agamma (SNF4/AMP-activated protein kinase gamma subunit) | DRSC13463 | 49152 | 2.48e5 | – | 10605 | 5799 |
| SNF4Agamma (SNF4/AMP-activated protein kinase gamma subunit) | DRSC15879 | 6.76e5 | 97714 | – | 42668 | 490 |
| SNF4Agamma (SNF4/AMP-activated protein kinase gamma subunit) | DRSC16847 | 88491 | 80055 | – | 3176 | 2533 |
| RhoGEF64C (Rho guanine nucleotide exchange factor at 64C) | DRSC08318 | 1.23e5 | 61526 | – | 4647 | 2530 |
| RhoGEF64C (Rho guanine nucleotide exchange factor at 64C) | DRSC08319 | 86753 | 50871 | – | 6950 | 2953 |
| Csgalnact (Chondroitin sulfate N-acetylgalactosaminyltransferase) | DRSC06228 | 67656 | 29849 | – | 1942 | 2874 |
| CG5742 | DRSC06949 | 1.50e5 | 89828 | – | 6535 | 4501 |
| CG5335 | DRSC06931 | 99395 | 63492 | – | 3792 | 2758 |
| beat-IIb (beaten path IIb) | DRSC13219 | 47968 | 1.24e5 | – | 10461 | 3531 |
| beat-IIb (beaten path IIb) | DRSC14816 | 68802 | 97857 | – | 2512 | 4429 |
| beat-IIb (beaten path IIb) | DRSC15546 | 85640 | 1.45e5 | – | 2922 | 5971 |
| Obp50e (Odorant-binding protein 50e) | DRSC06434 | 90292 | 69564 | – | 2480 | 5169 |
| Damm (Death associated molecule related to Mch2 caspase) | DRSC07393 | 1.14e5 | 81808 | – | 3074 | 5724 |
| TTLL5 (Tubulin tyrosine ligase-like 5) | DRSC14181 | 95152 | 74040 | – | 3387 | 2331 |
| CG42662 + CG30080 | DRSC05571 | 1.73e5 | 3.74e5 | – | 4435 | 15728 |
| Pngl (PNGase-like) | DRSC04914 | 1.07e5 | 87267 | – | 2257 | 7776 |
| CG10920 | DRSC17765 | 65493 | 1.82e5 | – | 2130 | 6929 |
| CG10680 | DRSC02093 | 77858 | 49984 | – | 2085 | 5193 |
| CG13544 | DRSC04186 | 98266 | 44816 | – | 2592 | 4122 |
| CG5327 | DRSC06930 | 1.23e5 | 65627 | – | 3288 | 4317 |
| CG30349 | DRSC06421 | 97904 | 49562 | – | 3268 | 5341 |
| CG30349 | DRSC06839 | 83693 | 38539 | – | 2592 | 4369 |
| CG10140 | DRSC09704 | 64711 | 62709 | 58348 | 6908 | 4210 |
| GatB (Glutamyl-tRNA amidotransferase, subunit B) | DRSC15807 | 4.71e5 | 98316 | – | 24423 | 2969 |
| Tbp (TATA binding protein) | DRSC04662 | 84482 | 37746 | – | 2141 | 3108 |
| CG8008 | DRSC07053 | 63385 | 58573 | – | 3008 | 1948 |
| CG31327 | DRSC13019 | 35847 | 1.62e5 | – | 7376 | 3184 |
| mtTFB2 (mitochondrial transcription factor B2) | DRSC15519 | 89750 | 1.44e5 | – | 3113 | 4018 |
| ds (dachsous) | DRSC00815 | 86210 | 66737 | – | 2112 | 1555 |
| Nse1 (Non-SMC element 1) | DRSC02147 | 1.12e5 | 87580 | – | 3979 | 3067 |
| Fife | DRSC08262 | 1.36e5 | 1.02e5 | – | 4896 | 3572 |
| Fife | DRSC08409 | 64170 | 64632 | – | 2434 | 4608 |
| Fife | DRSC08499 | 76966 | 32984 | – | 2230 | 2514 |
| Atg9 (Autophagy-related 9) | DRSC06848 | 92653 | 68771 | – | 3722 | 2885 |
| mod(mdg4) + pre-mod(mdg4)-U | DRSC13476 | 50128 | 1.71e5 | – | 11299 | 3970 |
| Mst84Dd (Male-specific RNA 84Dd) | DRSC12600 | 1.20e5 | 1.52e5 | – | 5324 | 4608 |
| CG31093 | DRSC15689 | 5.09e5 | 70944 | – | 25160 | 2135 |
| CG18539 | DRSC06766 | 89154 | 80666 | – | 2257 | 6251 |
| Mtp (Microsomal triacylglycerol transfer protein) | DRSC03216 | 64727 | 51632 | – | 2857 | 2179 |
